The text below walks through data of doi:10.1101/2025.07.15.665015 (bioRxiv, 2025).

Weaker means in comparison with the reference protein, sequence or condition of that experiment.

For the data set, the target named is PKRΔRBD2 del100-176 (Homo sapiens) (UniProt P19525). Nature of the data set: single-molecule colocalization. The note with it: shorter half-life than PKR; residues 1-551.

With “GGGUAUCAUGGCGGACGACCGGGGUUCGAACCCCGGAUCCGGCCGUCCGCCGUGAUACCC [mini-VA]”, the binding result is on record as “binds more weakly”.
